Measurements reported in patent US20130078268A1 (priority 2010, published 2013).

Assay: general procedure: Fmoc solid-phase peptide synthesis; HCTU
Details: whole synthesis, HPLC

## [pGlu]PPGGSKVILF
  purity (crude or final not stated): >95%

Where no end group is shown, it is not given here. [ ]: non-standard residue; d: D form. pGlu = O=C1CC[C@@H](C(=O)O)N1
